The source of these data is US6716964.

The target in this assay is E1A exon 2 bait. The experiment in a line: yeast two-hybrid.

No constants are given. Whether binding was seen depends on the method and setting. Tags and fused reporters may be left off the sequences shown.

B1: pGAD#9 prey (GAL4 activation domain fused to the C-terminal 864 residues of CtIP) (protein, not shown: large carriers)
chain: EVQGLQVKVTKLKQERILDAQRLEEFFTKNQQLREQQKVLHETIKVLEDRLRAGLCDRCAVTEEHMRKKQQEFENIRQQNLKLITELMNERNTLQEENKKLSEQLQQKIENDQQHQAAELECEEDVIPDSPITAFSFSGVNRLRRKENPHVRYIEQTHTKLEHSVCANEMRKVSKSSTHPQHNPNENEILVADTYDQSQSPMAKAHGTSSYTPDKSSFNLATVVAETLGLGVQEESETQGPMSPLGDELYHCLEGNHKKQPFEESTRNTEDSLRFSDSTSKTPPQEELPTRVSSPVFGATSSIKSGLDLNTSLSPSLLQPGKKKHLKTLPFSNTCISRLEKTRSKSEDSALFTHHSLGSEVNKIIIQSSNKQILINKNISESLGEQNRTEYGKDSNTDKHLEPLKSLGGRTSKRKKTEEESEHEVSCPQASFDKENAFPFPMDNQFSMNGDCVMDKPLDLSDRFSAIQRQEKSQGSETSKNKFRQVTLYEALKTIPKGFSSSRKASDGNCTLPKDSPGEPCSQECIILQPLNKCSPDNKPSLQIKEENAVFKIPLRPRESLETENVLDDIKSAGSHEPIKIQTRSDHGGCELASVLQLNPCRTGKIKSLQNNQDVSFENIQWSIDPGADLSQYKMDVTVIDTKDGSQSKLGGETVDMDCTLVSETVLLKMKKQEQKGEKSSNEERKMNDSLEDMFDRTTHEEYESCLADSFSQAADEEEELSTATKKLHTHGDKQDKVKQKAFVEPYFKGDERETSLQNFPHIEVVRKKEERRKLLGHTCKECEIYYADMPAEEREKKLASCSRHRFRYIPPNTPENFWEVGFPSTQTCMERGYIKEDLDPCPRPKRRQPYNAIFSPKGKEQKT
Turning to B1, the binding entry is recorded as “no binding”.
